Measurements taken from PubChem BioAssay AID602313 (National Center for Advancing Translational Sciences (NCATS), 2012).
Screen size: about 390,000 compounds; about 760 (0.19%) were called active. The inconclusive results got no clear call from the source; some entries with a clear call stand among them for comparison. Calls come from the whole dose curve; as a rule, active = well fitted inhibition curve with a large enough effect; inconclusive = small, poorly fitted or top-dose-only effect; inactive = flat fitted curve, though single readings scatter. Potencies beside an inconclusive call are fits to weak or partial responses and may not hold up.
Potency is the fitted concentration of half-maximal effect.

Assay: qHTS for Inhibitors of Vif-A3F Interactions: qHTS; note: nearly all actives have a fitted effect of over 65% in size
Settings: HeLa A3F-eYFP + Vif (tagged APOBEC3F with the HIV-1 protein that degrades it), YFP fluorescence increase; series mostly up to 46.1 µM
How it was run: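 HeLa cells stably expressing Vif plus C-terminally eYFP-tagged A3F were seeded, incubated overnight at 37 deg C, dosed with compound, incubated overnight again at 37 deg C. Yellow fluorescence (Ex 488/Em 500-530) reported blocked Vif-mediated A3F-eYFP degradation.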
With `CC(Nc1nc(N2CCNCC2)nc2ccccc12)c1ccccc1` (stereo unspecified) the Potency was inconclusive: 15.8 µM [inhibitor, single point]. In the case of `N#C/C(=N\Nc1cccc(Cl)c1)C(=O)c1ccccc1`, the Potency is reported as “inactive”. For `COc1cccc(-c2nc(-c3ccccn3)no2)c1OC`, the Potency was “inactive”. In the case of `O=C(c1ccc([N+](=O)[O-])o1)N1CCN(c2nc3c(Cl)cccc3s2)CC1`, the Potency is reported as inconclusive: 3.16 µM [inhibitor, partial curve, poor fit]. For `CCc1cccc(CC)c1NC(=O)CSc1nc2ccc(N3C(=O)C4C5C=CC(C5)C4C3=O)cc2s1` (stereo unspecified), the Potency was inconclusive: 20 µM [inhibitor, single point]. In the case of `C=C1c2cccc(OC)c2O[C@H](C(=O)OCC)[C@@H]1CC(CC)CCCC` (stereo partly specified), the Potency is reported as inconclusive: 35.5 µM [inhibitor, single point]. For `CC(/C=C1\SC(=S)N(CCCC(=O)Nc2ccc(C(=O)O)cc2)C1=O)=C\c1ccccc1`, the Potency was “inactive”. In the case of `Cc1ccc(NS(=O)(=O)c2cc(C(=O)N3CCCC3)ccc2C)cc1C`, the Potency is reported as inconclusive: 5.62 µM [inhibitor, single point]. With `CC(C)(C)c1cc[n+](-c2[nH]c(=O)sc2/C=N/NC(=O)c2ccccc2[O-])cc1` the Potency was inconclusive: 25.1 µM [inhibitor, single point]. For `COc1ccccc1Nc1nc2c(C)cccc2cc1C#N`, the Potency was inconclusive: 12.6 µM [inhibitor, partial curve, poor fit]. With `CN(C(=O)CCCN1C(=O)c2cccc3cccc(c23)C1=O)c1ccccc1` the Potency was inconclusive: 12.6 µM [inhibitor, single point]. In the case of `Oc1cccc(NC(=S)N=Nc2c(O)[nH]c3ccccc23)c1`, the Potency is reported as inconclusive: 25.1 µM [inhibitor, single point]. For `COC(=O)c1cccc(N2CCCC2=O)c1`, the Potency was inconclusive: 5.62 µM [inhibitor, single point]. In the case of `Cc1ccc(N=C2NC(=O)S/C2=C\c2ccco2)cc1`, the Potency is reported as inconclusive: 35.5 µM [inhibitor, single point]. For `Cc1cc(NCCCCO)n2c(nc3ccccc32)c1C#N`, the Potency was “inactive”. For `O=Nc1c(O)n(Cc2ccccc2)c2ccccc12`, the Potency was “inactive”. With `COc1ccccc1C(CNC(=O)CSc1ccc2ccccc2c1)N(C)C` (stereo unspecified) the Potency was inconclusive: 6.31 µM [inhibitor, single point]. For `Cc1cc2oc(=O)cc(CSc3nnc(C)n3N)c2cc1C(C)C`, the Potency was “inactive”. With `C[N+](C)(C)CC(=O)N/N=C/c1c2ccccc2cc2ccccc12` the Potency was “inactive”. For `N#Cc1ccc2c(c1)nnn2-c1ccccc1`, the Potency was “inactive”. For `COC(=O)c1c(-c2ccccc2Cl)noc1/C=C/N(C)C`, the Potency was inconclusive: 35.5 µM [inhibitor, single point]. For `Cc1ccc(C(C)(C)C)cc1S(=O)(=O)N1CC(=O)Nc2ccccc21`, the Potency was “inactive”. For `Cc1nc2ccc(Cl)cc2nc(C)/c1=N\O`, the Potency was inconclusive: 11.2 µM [inhibitor, single point]. With `COC(=O)c1ccc(COc2ccccc2/C=N/NC(=O)c2cccnc2)cc1` the Potency was inconclusive: 3.16 µM [inhibitor, partial curve, poor fit]. For `Cc1ccc(-c2n[nH]c(=S)n2/N=C/c2c(C)nn(-c3ccccc3)c2C)cc1`, the Potency was inconclusive: 35.5 µM [inhibitor, single point]. In the case of `O=C(NCc1cc(F)ccc1F)C1CCC(=O)N(C2CCCCCC2)C1` (stereo unspecified), the Potency is reported as inconclusive: 2 µM [inhibitor, partial curve, poor fit]. For `Cc1ccc2c(c1)N(Cc1cccc(F)c1)C(=O)C(C)O2` (stereo unspecified), the Potency was inconclusive: 11.2 µM [inhibitor, partial curve]. With `CCN(CC)c1ccc2cc(-c3nc(-c4ccccc4F)no3)c(=O)oc2c1` the Potency was inconclusive: 2.24 µM [inhibitor, partial curve, poor fit]. With `Cc1cc(NC(=O)NC(=O)c2ccccc2NC(=O)CN(C)C)ccc1Oc1ncc(Br)cn1` the Potency was “inactive”. In the case of `O=C(CSc1nnc(C2CC2)n1Cc1ccccc1)N1CCNC1=O`, the Potency is reported as inconclusive: 35.5 µM [inhibitor, single point]. With `CC(C)/C=N/NC(=O)c1ccc(Cl)cc1` the Potency was “inactive”. With `Cc1[nH]c2ccccc2c1/C=C/c1nc2ccccc2c(=O)n1-c1ccc([N+](=O)[O-])cc1` the Potency was “inactive”. With `Cc1ccc(/C=C/C(=O)N2CCN(Cc3ccccc3)CC2)o1` the Potency was “inactive”. For `O=[N+]([O-])c1ccc(C(=S)N2CCN(c3ccc(F)cc3)CC2)cc1`, the Potency was “inactive”. With `O=C(NC1CCCCC1)C(c1ccc(F)cc1)N(C(=O)c1csnn1)C1CC1` (stereo unspecified) the Potency was inconclusive: 5.62 µM [inhibitor, single point]. In the case of `O=C(/C=C/c1cn(-c2ccccc2)nc1-c1ccc2c(c1)OCCO2)NCCCN1CCOCC1`, the Potency is reported as inconclusive: 35.5 µM [inhibitor, single point]. With `Cn1nnc(NC(=O)c2ccc3ccccc3c2)n1` the Potency was “inactive”. For `Cc1sc(NC(=O)c2ccco2)c(C(c2cccnc2)N2CCN(CCO)CC2)c1C` (stereo unspecified), the Potency was “inactive”. With `CCCCN(C(=O)/C=C/c1ccco1)c1c(N)n(CCC)c(=O)[nH]c1=O` the Potency was inconclusive: 0.316 µM [inhibitor, full curve, poor fit]. In the case of `CCC(CC)COC(=O)C1=C(C)NC(=O)NC1c1ccc(N(C)C)cc1` (stereo unspecified), the Potency is reported as inconclusive: 35.5 µM [inhibitor, single point]. With `COc1ccc(C=CC(=O)C=CC=Cc2ccccc2)cc1` the Potency was inconclusive: 25.1 µM [inhibitor, partial curve, poor fit]. In the case of `Cc1ccc(NC(=O)c2ccc3snnc3c2)cc1`, the Potency is reported as “inactive”. With `Cc1cccc(NC(=O)c2ccc(N3CCOCC3)c([N+](=O)[O-])c2)n1` the Potency was inconclusive: 25.1 µM [inhibitor, single point]. With `CC(/C=C1\SC(=S)N(CCC(=O)Nc2ccccc2O)C1=O)=C\c1ccccc1` the Potency was inconclusive: 25.1 µM [inhibitor, single point]. For `CCN1C(=O)C(CC(=O)Nc2ccc(OC)cc2)N(CCc2ccc(OC)cc2)C1=S` (stereo unspecified), the Potency was “inactive”. For `CCCCn1c(=O)[nH]c(=O)c2c1nc(-c1cccc(OC)c1)n2C`, the Potency was inconclusive: 35.5 µM [inhibitor, single point].
